This is an account of results in paper PMC7819943, “Rice protein-binding microarrays: a tool to detect cis-acting elements near promoter regions in rice”.

The chains behind the UniProt entries cited, without tags or fusion partners.
UniProt Q0JBA9, entry or part of it: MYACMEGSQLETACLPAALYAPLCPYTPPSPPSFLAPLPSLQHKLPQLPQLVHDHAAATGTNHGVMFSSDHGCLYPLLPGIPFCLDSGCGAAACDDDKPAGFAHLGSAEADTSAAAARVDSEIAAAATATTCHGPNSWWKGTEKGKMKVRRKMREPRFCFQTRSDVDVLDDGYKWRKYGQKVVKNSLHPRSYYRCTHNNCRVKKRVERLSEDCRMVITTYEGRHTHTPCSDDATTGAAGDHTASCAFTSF

The list shows a part of the results.

For this test, the target named is OsWRKY34 (Oryza sativa, UniProt Q0JBA9 1-250). Briefly: protein-binding microarray (RPBM); PBS, 2% BSA, 51.3 ng/ul salmon testes DNA, 50 uM zinc acetate, 200 nM TF, 25 C, 1 h; high values mean tight binding. The following applies: protein: recombinant; tags: N-terminal polyhistidine and DsRed monomer fusion (pET32a); label: CyDye5-dUTP incorporated in the synthesized complementary strand; 3' TTTTT single-stranded linker to array surface; dsDNA, one strand shown. The gist of the method: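 Per-feature fluorescence intensity (arbitrary units), read on an Axon 4000B scanner, is the binding signal. Transcription factors carrying an N-terminal polyhistidine tag and DsRed fusion were expressed in E. coli BL21-CodonPlus and purified on Ni–NTA. A custom Agilent array, made double-stranded by primer extension with Cy5-dUTP and blocked with 2% BSA, was incubated with 200 nM protein in PBS, 2% BSA, salmon testes DNA and 50 µM zinc acetate at 25 °C for 1 h and then washed.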
As to “ATCCTGGACTATGGCTTTCTCTCGTAGCACGATTTTTCTTCGGAGTCACCTAGTGCAG”, the binding signal is 10600 fluorescence intensity (a.u.).
Turning to “GCTTGTACCACTGGTGCCATCTTTTTTACTACTTTTCAACCGGAGTCACCTAGTGCAG”, the binding signal was 9360 fluorescence intensity (a.u.).
For the sequence “CATGTTCCTCCAAACCCCTAATGGAAATGTTCTCATCTCTCGGAGTCACCTAGTGCAG”, the binding signal was 8280 fluorescence intensity (a.u.).
As to “CGCGTGCGTTCGTTGGCGTCTACTTGTCTCCTGAGATTTTCGGAGTCACCTAGTGCAG”, the binding signal was 12200 fluorescence intensity (a.u.).
With “ACTTTAAGCCACGTATCTTTGATTCTTTTCCCCTTCTTTTCGGAGTCACCTAGTGCAG” the figure was 8480 fluorescence intensity (a.u.).
Consider “CGATGGTGGAGATGTAGTCACGCTGTTCCGGCCCGTCTCCCGGAGTCACCTAGTGCAG”, for which the binding signal was 9300 fluorescence intensity (a.u.).
As to “AGACTTAATAATAGTGCTCCTGGGGTCGTTAGTGTGTAACCGGAGTCACCTAGTGCAG”, the binding signal was 8750 fluorescence intensity (a.u.).
The result for “ACACAACCGCTCATATAAACATGCATATATCCTACTTCTACGGAGTCACCTAGTGCAG” reads 9030 fluorescence intensity (a.u.).
Turning to “AGAGATAGTACTCTGTGCGTGGTGGGAGGAGGGATGAAAACGGAGTCACCTAGTGCAG”, the binding signal is 9500 fluorescence intensity (a.u.).
The result for “ACCAGAGCTCCACTAACCAAATCCTCGCGCCATTAGCTTCCGGAGTCACCTAGTGCAG” reads 9460 fluorescence intensity (a.u.); that for “GGGATCCACAGCCTAATCTTCGTTCTTATCCACTCATTCCCGGAGTCACCTAGTGCAG”, 9040 fluorescence intensity (a.u.); that for “GGTGCAGTCCTCCAGCTGCTTCTCCCCGCCGCCGACCCGCCGGAGTCACCTAGTGCAG”, 9670 fluorescence intensity (a.u.).
Consider “ACGCTCTCGACTCGATCGCGCGCGCGCGGTTGGCGGTTCCCGGAGTCACCTAGTGCAG”, for which the binding signal is 8250 fluorescence intensity (a.u.).
As for “AGCTTCTGTGGCCAGCTGTTTCACCATCATCTCCGCGGCCCGGAGTCACCTAGTGCAG”, the binding signal was 9800 fluorescence intensity (a.u.).
As to “CTCCGTCGCTGACTGCAACCTCCACCCACACGGCACCCATCGGAGTCACCTAGTGCAG”, the binding signal is 8090 fluorescence intensity (a.u.).
With “GCCTGATGTGTTGATGTGCTGCTGTTCAGACTTTGAACCTCGGAGTCACCTAGTGCAG”, the binding signal was 10800 fluorescence intensity (a.u.).
The result for “TTTGGACCTCTAAACTTTCACATATATCAGTTTATCTTACCGGAGTCACCTAGTGCAG” reads 8220 fluorescence intensity (a.u.); that for “CCAGAGGTGCTCTTAGAGGGTAGGGTATTTATTTATTACACGGAGTCACCTAGTGCAG”, 8490 fluorescence intensity (a.u.); that for “ATCTCCATTGGATATCCCGTCTCTTCAGCCGGTCGTCAATCGGAGTCACCTAGTGCAG”, 9570 fluorescence intensity (a.u.).
With “TCACCCTACTGCAGCTGCTGTTTTTATGCATCCTGCTGCCCGGAGTCACCTAGTGCAG” the figure was 8820 fluorescence intensity (a.u.).
Turning to “TGAGCCTTCGTTTTCTCTCCCTCAGTTCTCCTCTACCACTCGGAGTCACCTAGTGCAG”, the binding signal is 8060 fluorescence intensity (a.u.).
As for “CCTATTGGCTGCTCAACTCATCGTTCTGTTGCTTCCTTCTCGGAGTCACCTAGTGCAG”, the binding signal is 11300 fluorescence intensity (a.u.).
Regarding “GGTACTTCTACTACCTCTGCAATCGGATTACATTGGACCACGGAGTCACCTAGTGCAG”, the binding signal is 9060 fluorescence intensity (a.u.).
With “AGTTCATCTCCCACTCCGGTGAGATCTCCCTGGTGAGCTTCGGAGTCACCTAGTGCAG” the figure was 8800 fluorescence intensity (a.u.); with “CTATCTTTTTCTCCATCTTTCTCTGTCCGTCCATTCACCCCGGAGTCACCTAGTGCAG”, 8690 fluorescence intensity (a.u.).
Turning to “GGGAGGGAGGGACCGAGGGAGTACTCCGGTCAAGCGATCACGGAGTCACCTAGTGCAG”, the binding signal is 10200 fluorescence intensity (a.u.).
Turning to “GAGTTTGTGTGCATGCGTTTATAGGTGTGAGTGTACGAGCCGGAGTCACCTAGTGCAG”, the binding signal is 8890 fluorescence intensity (a.u.).
The result for “AGCATCCCAGCAGCTTATCCATATTTTATCCTCTAAATACCGGAGTCACCTAGTGCAG” reads 8830 fluorescence intensity (a.u.); that for “TTGGAGTTGTAGAGGAGGAGGAGGTGGTGGTGGAGGTGGTCGGAGTCACCTAGTGCAG”, 10200 fluorescence intensity (a.u.); that for “CCGTTTCGAAATGTTTACACCGTTGACTTTTTAGCACATGCGGAGTCACCTAGTGCAG”, 30100 fluorescence intensity (a.u.).
In the case of “GTATGCTGGATGTAGATGGATTTTTTTCTGGGGTTGCTTACGGAGTCACCTAGTGCAG”, the binding signal is 8130 fluorescence intensity (a.u.).
Turning to “ATTTTATATTATAAGTCGTTTTGACTTTTTCGCTAATCAACGGAGTCACCTAGTGCAG”, the binding signal was 8620 fluorescence intensity (a.u.).
As to “ACTCTCTCATGCTCCCTCATGTTCCTGCCACAATCTATATCGGAGTCACCTAGTGCAG”, the binding signal was 9460 fluorescence intensity (a.u.).
As to “GAGATATGGCAGATTTATTTACTGTTGGTAGTGCGCTTCACGGAGTCACCTAGTGCAG”, the binding signal was 10700 fluorescence intensity (a.u.).
On to “GTCTCTCTTTTTGTTTCGTCGTAGATTTCTTGGAGAATTTCGGAGTCACCTAGTGCAG”, for which the binding signal is 11700 fluorescence intensity (a.u.).
With “TTACACAATCATCGTTTTTGCTTATTATTATTATTTATCACGGAGTCACCTAGTGCAG” the figure was 8380 fluorescence intensity (a.u.).
Turning to “TTTCATATGAGCGAATTTTAGATTGGGTTGTTTGCGGGGCCGGAGTCACCTAGTGCAG”, the binding signal was 8760 fluorescence intensity (a.u.).
For the sequence “TTGGTTGGTTGGTTATACAAAGACGCTACGAGTCCGGGAACGGAGTCACCTAGTGCAG”, the binding signal is 12400 fluorescence intensity (a.u.).
As for “TTCTTCTGCCTTTTTTTTTTGGGGCTCATTTAGTCATTTACGGAGTCACCTAGTGCAG”, the binding signal is 9890 fluorescence intensity (a.u.).
The result for “CCGCTTCCATTTTGCCCAGCGACGACATATGCTGTTGCGTCGGAGTCACCTAGTGCAG” reads 10700 fluorescence intensity (a.u.).
For “AACCTGGTCACCTACCTGACGGCGACGATGCACGCCGGCACGGAGTCACCTAGTGCAG”, the binding signal was 8200 fluorescence intensity (a.u.).
As for “TACATCTCTCTTATTTGGATCACGTATTATCCTTTTTCATCGGAGTCACCTAGTGCAG”, the binding signal was 10300 fluorescence intensity (a.u.).
